Source: the supplement of paper PMC5949888
Most values lie at the floor of the assay. Slopes are relative: functional sequences can read slightly below zero.

System: Saccharomyces cerevisiae PS128 hsf1 delta, HSF1(1-493) fusion
Experiment: growth estimate (transactivation domain function in HSF1 fusion, heat-shock survival) (a.u. (slope of normalised read count over time)); higher = stronger growth at 37°C, i.e. more transactivation activity
Conditions: library: random library

Substance	growth estimate
GSRFVGVRPLFRQRGSGGYA	< -0.25
HPNAYHSVINHRIASFSTCA	< -0.25
FYSGNFATILLGSCCGRRAC	< -0.25
VLGMA	< -0.25
GTSCYESSARCLSRDEIGIS	-0.246
TWSR	< -0.25
RNSMGGSLGMSGTAIVESIK	< -0.25
IDLTYTRGQKIGVASDGSVG	< -0.25
DLSHADSTGVRRCRRRRHMS	< -0.25
VPAERLARVPRPVFRKIHCT	< -0.25
IQRFWIKPSAMEGAGSICTV	< -0.25
NQEY	< -0.25
WKVI	< -0.25
HEGVLTCPSP	< -0.25
LGQCCRARILTCDW	< -0.25
RGCAHRMKKLRFRRVEG	< -0.25
CSSVSMV	< -0.25
SSTSVVRVAGQ	< -0.253
AGLHILLFACCEDWSP	< -0.25
SCRANKASQIRQWRLVAQYS	< -0.25
AFNECMMCLVTSHRFVNLVD	< -0.25
VGTNYTIKGEAKCTRCPAAT	< -0.25
IMGSGLE	< -0.25
CVEPSGNDR	< -0.25

Substance	growth estimate
VLTSNHLGHCLFQSL	< -0.25
RYKL	< -0.25
YKITETG	< -0.25
LSDLVYLGNYAWCAHGPQRP	< -0.25
HVPSLIVIQATLWLAKSGVP	< -0.25
DTTGEPVSSRRTFWWGRGRP	< -0.25
SLSRPLNR	< -0.25
LVVPGRLLRSLGRSDHERTR	< -0.25
SLADGGGRLPRKCLVGWTLG	< -0.25
AENMILVVRARGYRVASRVE	< -0.25
RELLMSRAQEWP	< -0.25
ESKIFQWSTRWWIRRAKHKL	< -0.25
SLVGNGALGVSKLSLRSAVH	< -0.25
NSSG	-0.245
QNGPSFG	< -0.25
RNIRVRIR	< -0.25
VRPTGDRKVRALSATAYDSD	< -0.25
LRPASELVSRCGFLAMGR	< -0.25
YTTGCRTQSRCGCLPP	< -0.25
RVNY	< -0.25
WFCP	< -0.25
ISFRGSTCQSWLGIANRPVR	< -0.25
VRGQHRMVGCSVNCVLVLNC	< -0.25
FMVAHAMPITLGQKEQTFK	< -0.25

Substance	growth estimate
NELAQESSAQFGVAEAAAAV	< -0.25
SPVQPDALSSVSKQWYEPAC	< -0.25
EQVICTGAEQLVRGTARGKP	< -0.25
TCC	< -0.25
LALLPEAPVYVGMVGVEVNS	< -0.25
FPRHLRTVGQSVNSTKWIGR	< -0.25
YGVLRFVCTRNRPSSVWGAM	< -0.25
ENRFKYSFSKGVSAMACWID	< -0.25
GHYGLDTHARPAPLIGLVVS	< -0.25
AGTASYRGANSVAKSIRSRH	< -0.25
MIVNKSARQRSHSTPANAR	< -0.25
EVGCPGRRG	< -0.25
NLRGVPLFGVHPVANPAGGR	< -0.25
GNL	< -0.25
RFTLTRDHVVGSST	< -0.25
RSDLRAQ	< -0.25
SLHPCISDGLPGETGVWAPE	< -0.25
RYSGPFPAIPHAARILL	< -0.25
DVGQFSSLLGCRGGISVSSG	< -0.25
MLVSGANL	< -0.25
AREDITHDQGRRLRYDQCSG	< -0.25
FSWN	< -0.25
ASHRCERRDECNLLW	< -0.25
LASYANSFHGTYLPFRFPP	< -0.25

Substance	growth estimate
SLVWSSSWGDGTNVGLT	-0.245
KDQSATG	< -0.25
LQQWVFI	< -0.25
MWIGGYPDLKQPEGGGWNKN	< -0.25
AEFVVAVLFGKTFIRSFGQA	< -0.25
EAVIPGGAFLHRHPFWTSLR	< -0.25
HHQNEAHVP	< -0.25
RGNGGT	< -0.25
NLSLVFGINSPLEHWYVGLR	< -0.25
LLRVN	< -0.25
IISRFKD	-0.246
IVSTCYGY	< -0.25
TCRQLSQ	-0.246
AYLRRFEAAFNHHPRWTSFI	< -0.25
NVRATAIVAVREHRSLAK	< -0.25
RMVSQWTARKQRKLL	< -0.25
KLPIDAEPIGLDIVLRSSTS	< -0.25
VVRCKDSIGMNPRTIQLSKL	< -0.25
GCLTLCIIRG	< -0.25
APPAQVTKSRSFE	< -0.25
VGINHDGRRVMVYTARG	< -0.25
CTKSSSIMCPRSCLCGNGWI	< -0.25
SQRGVTINRESETPLMCTTN	< -0.25
RLGENVHGPSPQEPLLPLQG	< -0.25

Substance	growth estimate
VKRICEHLGNSVLTYRVRTA	< -0.25
AERYRVLTANV	< -0.25
RSCFRDGPGEITYAFRTRPE	-0.246
GLGGCPECCCGDTTICCLRL	-0.15
KPFILGTGHPRSPDTL	< -0.25
PVSEYCRTPEGPRPPAYRRQ	< -0.25
ISHFPCQ	< -0.25
TSSFFIQRLGYPLPGAVAWA	< -0.25
KPSRFLVRVWLSTLVYRFGT	< -0.25
ILERSRSVFKKVQG	< -0.25
RSQLGV	< -0.25
VASMTSRGRTNVGLGSATLL	< -0.25
TRC	< -0.25
ASLEIRPDGSLGPQRQPKCA	-0.233
WFI	< -0.25
IRGMGAGGIRSAVHGT	< -0.25
GVCKRCEGAAGVHSCLYHRS	-0.243
CISCSGARLGCVFPYLRFVG	< -0.25
QCRRHALRPYHMDTHDPDGA	< -0.25
RWYFGF	< -0.25
SSPGLTLAKLVHRGCCLLTC	< -0.25
ASNAVLVLHGRGVCSQSQQT	< -0.25
GMITVPSTDNGDPDGGGRYT	< -0.25
TLAADFRIAC	< -0.25

Quoted from the listing:
AFNECMMCLVTSHRFVNLVD – growth estimate: < -0.25
LALLPEAPVYVGMVGVEVNS – growth estimate: < -0.25
NLRGVPLFGVHPVANPAGGR – growth estimate: < -0.25
MIVNKSARQRSHSTPANAR – growth estimate: < -0.25
RWYFGF – growth estimate: < -0.25
FYSGNFATILLGSCCGRRAC – growth estimate: < -0.25
RVNY – growth estimate: < -0.25

(further entries)

Substance	growth estimate
HAWSLAV	< -0.25
SRVALGGMAGVAKGTF	< -0.25
IHRGLL	< -0.25
VLRGQPLEMPFGMDLLFLHR	< -0.25
RSPFDAVILMRNRTHGVSHI	< -0.25
AVRILMQRLWRLTTSLDQTG	< -0.25
CGTNELNREAACRGGGGLIG	< -0.25
GCLVSYILRYSMQRPCTLHN	< -0.25
SPWTPT	< -0.25
PTSGSPHCIHA	< -0.25
CQHQTATAEGYLWWIPEVIG	< -0.25
NTHHSRSHSSPGTRGCRANS	< -0.25
RSRRGVSYFVARSTSRLRLP	< -0.25
SATQSGPRVGRLPWMTRPSN	< -0.25
YVLACFLAFSCTLITRPSLG	< -0.25
STPVVP	< -0.25
GHW	< -0.25
WINGLCLRWSQCVAAVRAPP	< -0.25
CAHSSEVVDE	< -0.25
NLVPLRLVSTDNPGLGS	< -0.25
KSLNMDRSDLYVRDGGLRDR	< -0.25
FSVPTIVVNRET	< -0.25
YDATSGRRRDILFAVDSPGM	< -0.25
